# Test results reported in PMC6704344, “The Preclinical Pharmacological Study of a Novel Long-Acting Local Anesthetic, a Fixed-Dose Combination of QX-OH/Levobupivacaine, in Rats” (Frontiers in Pharmacology, 2019).
# Assay: Plasma pharmacokinetics after sciatic nerve block in rats
# Assay type: in vivo, rat
# Conditions: Lidocaine/Levo-Bupi (35 mM/10 mM), n = 10
# Description: In brief, rats were anesthetized by inhaling 1%–2% isoflurane mixed with oxygen through an inhouse-made mask. Then, the rats were placed at right lateral position and inserted vertically using a 23-gauge injector at the middle of the line from the greater trochanter to ischial tuberosity ([Binshtok et al., 2007]; [Zhang et al., 2017b]). Once the bone has been contacted, 200 μl drug was injected.
# According to the China Food and Drug Administration guidance for preclinical pharmacokinetic study, there should be more than three sampling points adjacent to the time to reach the maximum concentration. In our preliminary experiment, the time to maximum concentration of Levo-Bupi, as a single drug in the rat sciatic nerve block, was 0.5 h. Thus, to obtain an accurate value of the maximum concentration of Levo-Bupi, we added another time point at 0.33 h. […]
# The parameters of pharmacokinetics were analyzed by DAS® (Drug and Statistics, version 3.2.1, China) using noncompartmental model. In this study, the following pharmacokinetic parameters were calculated: the value of maximum concentration (Cmax) and the time to acquire (Tmax); the elimination half-life (t1/2); area under curve (AUC) from zero to the last time point (AUC0–last) and from zero to infinity (AUC0–∞); clearance (CL/F), and volume of distribution (Vd/F).
smiles,measurement,value
CCN(CC)CC(=O)Nc1c(C)cccc1C [lidocaine],effect on the absorption of Levo-Bupi,did not have a similar effect
